The source of these data is PubChem BioAssay AID2685 (National Center for Advancing Translational Sciences (NCATS), 2010).

This is one part of the list. The main result of the screen is listed elsewhere. These columns were measured beside it and carry no call. The list favours compounds with an active or inconclusive main result. Words in brackets tell the shape of the fitted curve; partial curves, single points and poor fits give uncertain potencies.

This assay is described as follows: qHTS Assay for Lipid Storage Modulators in Drosophila S3 Cells.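 For cell number change: cells counted by Cell Tracker Red CMTPX staining in the red channel.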 To be noted: BODIPY lipid droplet fluorescence, 18-24 h; for cell number change: measured here: cell count max response, cells fed with added oleic acid. The procedure, abridged: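 Drosophila S3 cells loaded with oleic acid (400 uM, as added) and compounds at several concentrations; lipid droplets imaged by 488-nm laser-scanning cytometry, 500–530 nm intensity and object ratio to cell channel. Percent activity normalized to 20 uM Triacsin C.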
Background: In qHTS, concentration-response curves come from the screen itself.

Setting [1] is: measured here: lipid fluorescence (Fed channel) AC50, cells fed with added oleic acid.
Where [2] appears, read: measured here: cell number channel AC50, cells fed with added oleic acid.

As usually defined, the AC50 is the midpoint of the concentration-response curve, whichever way the signal moves. The low end stands for greater potency, the high end for weaker potency. As for `Cc1ccn2c(-c3csc(NCc4ccccc4)n3)c(C)nc2c1`, the cell number change is -25.6%. Under setting [1], the AC50 is 20.6 µM [falling, partial curve].
On to `CCC(=O)N(Cc1cccs1)C1CCOC(C)(C)C1` (stereo not drawn), for which the cell number change is -28.1%. In addition, the AC50 under setting [2] is 1.16 µM [falling, full curve, poor fit]. The AC50 under setting [1] was 20.6 µM [falling, single point].
With `Cc1cccc(OCC(=O)N/N=C/c2cccn2C)c1`, the cell number change is 18.1%. Further, the AC50 under setting [1] is 2.59 µM [rising, full curve].
As for `CCOc1ccccc1CNC(=O)c1cc2oc3ccccc3c2n1CC`, the concentration at half-maximal activity (AC50) under setting [2] was 6.51 µM [rising, single point].
Regarding `Cc1nnsc1C(=O)NCc1c(F)cccc1Cl`, the cell number change was found to be 0.539%. In addition, the AC50 under setting [1] is 0.58 µM [falling, single point].
Take `O=c1[nH]cnc2c1C1(CCCC1)Cc1ccccc1-2`: the cell number change is -81.9%. Moreover, the half-maximal activity concentration (AC50) under setting [1] was 29.1 µM [falling, single point].
Take `CCCCOC(=O)C1CCCC(C)N1` (stereo not drawn): the cell number change came to 13%. Further, the concentration at half-maximal activity (AC50) under setting [1] was 3.66 µM [falling, partial curve].
With `O=C(Cn1cnc2sc3c(c2c1=O)CCCC3)NCC(=O)Nc1c(F)cc(F)cc1Br`, the cell number change came out at 22.7%. In addition, the concentration at half-maximal activity (AC50) under setting [2] was 0.92 µM [rising, partial curve, poor fit]. In addition, the AC50 under setting [1] is 29.1 µM [rising, single point].
For the compound `COCCSc1nnc(NC(=O)CS(=O)(=O)c2ccc(C)cc2)s1`, the cell number change was -8.57%. For the same compound, the AC50 under setting [1] is 6.51 µM [falling, single point].
In the case of `O=c1oc2ccc(NS(=O)(=O)c3cccc4cccnc34)cc2s1`, the cell number change was -0.87%. The AC50 under setting [1] was 2.91 µM [rising, single point].
As to `CC(=O)c1c(C)[nH]c(C(=O)CSc2nc3ccccc3n2C)c1C`, the cell number change was -21.5%. The AC50 under setting [1] was 6.51 µM [falling, single point].
`N#CC1=C(N)NC(SCc2ccccc2)=C(C#N)C12CCCCC2`: the cell number change came out at 0.562%. Moreover, the half-maximal activity concentration (AC50) under setting [2] was 0.58 µM [rising, single point].
As to `CCCN(c1ccc(C(=O)OC)cc1)S(=O)(=O)c1ccccc1`, the cell number change came out at 20.9%. Moreover, under setting [1], the AC50 is 13 µM [rising, partial curve, poor fit].
As for `CN(C(=O)CCc1nc2ccccc2c(=O)[nH]1)C1CCS(=O)(=O)C1` (stereo not drawn), the cell number change is -13.6%. Further, the AC50 under setting [1] was 0.0731 µM [rising, full curve, poor fit].
With `CC1=C(/C=C/C(=O)O)C(C)(C)CCC1`, the cell number change is -5.49%. Moreover, the AC50 under setting [1] is 25.9 µM [falling, partial curve].
`CCN(CC)Cc1ccc(OC)c(Cl)c1`: the cell number change is -11%. Moreover, under setting [1], the AC50 was 0.103 µM [falling, full curve].
On to `CCOc1ccccc1N1CCN(S(=O)(=O)c2ccc3c4c(cccc24)C(=O)N3)CC1`, for which the cell number change is -17.4%. Further, the AC50 under setting [1] was 4.11 µM [rising, single point].
`CCn1c(C)c(C)c2cc(C(=O)NC3CCCCCC3)ccc21`: the cell number change is -10.7%. Besides, under setting [1], the AC50 was 29.1 µM [falling, single point].
With `Cc1ccc(S(=O)(=O)Oc2ccccc2N2C(=O)C3CC=CCC3C2=O)cc1` (stereo not drawn), the cell number change came to 13.4%.
Regarding `O=S(=O)(c1cccs1)N1CCC2(CC1)OCCN2S(=O)(=O)c1ccccc1`, the cell number change is -7.69%. The AC50 under setting [1] is 10.3 µM [rising, partial curve].
Turning to `O=C(CCCCCn1c(=O)[nH]c2ccsc2c1=O)NCc1cccs1`, the AC50 under setting [1] was 5.8 µM [falling, partial curve].
As for `O=C(O)c1sc2ncccc2c1OCc1ccccc1`, the cell number change was found to be 15%. In addition, under setting [1], the AC50 is 5.8 µM [falling, single point].
Regarding `CCOc1ccc(N2CC(C(=O)Nc3ccccc3F)CC2=O)cc1` (stereo not drawn), the cell number change was 36.3%. For the same compound, the AC50 under setting [2] is 25.9 µM [rising, single point]. The half-maximal activity concentration (AC50) under setting [1] is 6.51 µM [rising, single point].
Take `COC(=O)c1ccc(CNC(=O)CCc2c[nH]c3ccccc23)cc1`: the cell number change was determined as 8.56%. Further, under setting [1], the AC50 was 18.4 µM [rising, partial curve, poor fit].
As to `COc1cccc(CN(C)C(=O)C2CCN(S(=O)(=O)c3ccc(C)cc3)CC2)c1OC`, the cell number change is -1.55%. In addition, the AC50 under setting [1] is 0.146 µM [falling, full curve, poor fit].
For `CC(c1ccc(F)cc1)n1c(-c2cccs2)n[nH]c1=S` (stereo not drawn), the cell number change turned out to be 85%.
The same measure, in the same setting: the figure for `Cc1cccc(Cn2c(C)c(C)c3cc(C(=O)NCCN4CCOCC4)ccc32)c1` is 17.7%.
For `COc1ccc(OC)c(C(=O)c2nc3c(n2O)CCCCC3)c1`, the cell number change was -29.5%. Further, under setting [2], the AC50 was 0.291 µM [falling, full curve, poor fit]. In addition, the AC50 under setting [1] was 6.51 µM [falling, single point].
On to `COc1ccc(/C(N)=N/OC(=O)CSc2ccccc2)cc1OC`, for which the cell number change came out at 3.78%. Further, the AC50 under setting [2] was 2.31 µM [rising, partial curve]. For the same compound, the AC50 under setting [1] was 1.64 µM [rising, full curve].
With `Cc1ccc([N+](=O)[O-])cc1N/C=C/C(=O)c1ccco1`, under setting [1], the AC50 was 4.61 µM [falling, partial curve].
Consider `CCOC(=O)c1csc(NC(C)=O)n1`, for which the cell number change is -32.8%. In addition, the concentration at half-maximal activity (AC50) under setting [2] is 2.91 µM [falling, full curve]. The AC50 under setting [1] is 2.59 µM [falling, full curve].
For `C/C(=N\NC(=O)Cc1ccccc1)c1ccc(Cl)s1`, the cell number change was 23%.
Take `COc1ccc(C(=O)Oc2ccc(F)cc2C(=O)/C=C/c2ccc(OC)c(OC)c2)cc1`: the cell number change turned out to be 6.09%. In addition, the half-maximal activity concentration (AC50) under setting [1] was 29.1 µM [falling, single point].
For the compound `CCC(Oc1ccccc1OC)C(=O)Nc1ccc2c(c1)OCO2` (stereo not drawn), the cell number change is -1.32%.
Take `CCc1cc(=O)oc2cc(C)cc(OCC(=O)NCc3cccnc3)c12`: the cell number change was -14.2%. Under setting [1], the AC50 is 6.51 µM [falling, single point].
On to `COC(=O)c1cc(NC(=S)Nc2cc(Cl)cc(Cl)c2)cc(C(=O)OC)c1`, for which the cell number change is -36.6%. The AC50 under setting [2] is 29.1 µM [falling, single point]. Besides, under setting [1], the AC50 was 2.06 µM [rising, single point].
Turning to `CC(=O)Nc1cccc(-c2nnc(-c3ccccc3)o2)c1`, the AC50 is, setting by setting: under setting [2], 2.31 µM [rising, partial curve]; under setting [1], 0.231 µM [rising, full curve].
As for `Cc1cc(C)nc(Nc2n[nH]c(-c3ccc(N)cc3)n2)n1`, the cell number change is 23.5%. For the same compound, the AC50 under setting [2] is 0.461 µM [rising, full curve, poor fit]. In addition, the half-maximal activity concentration (AC50) under setting [1] was 1.64 µM [rising, partial curve].
With `CCC(c1nnnn1C1CCCCC1)N1CCN(C(=O)c2ccco2)CC1` (stereo not drawn), the cell number change was determined as 21.8%. For the same compound, under setting [1], the AC50 is 6.51 µM [falling, single point].
As to `CCC(C)C(Nc1ccc(C(=O)OC)cc1[N+](=O)[O-])C(=O)OC` (stereo not drawn), the cell number change was -17.2%. The AC50 under setting [1] was 6.51 µM [rising, single point].
`CCc1ccc(N2CC(C(=O)Nc3ccc(S(=O)(=O)Nc4nccs4)cc3)CC2=O)cc1` (stereo not drawn): the cell number change is -18.4%. The AC50 under setting [1] is 5.62 µM [falling, single point].
Regarding `CCn1c(SCC(=O)N(C)C2CCCCC2)nc2cc(S(N)(=O)=O)ccc21`, the cell number change was -9.33%.
Same read-out and setting: with `O=C(CSc1nnc(Cc2ccccc2)o1)c1ccc(F)cc1` the figure was 9.82%.
Regarding `O=C(O)c1cccc(Sc2cc(Cl)ccc2C(=O)O)c1`, the cell number change is -32.3%. Moreover, under setting [1], the concentration at half-maximal activity (AC50) is 25.9 µM [falling, single point].
In the case of `CN(C)CCOC(=O)c1ccc2[nH]c3c(c2c1)CSCC3`, the cell number change stood at 15.3%. Besides, the AC50 under setting [1] was 11.6 µM [rising, single point].
As to `N#Cc1nc(COc2ccccc2F)oc1NCc1ccc(F)cc1`, the cell number change is -6.49%.
The same measure, in the same setting: the figure for `CC(=O)c1ccc(N2CCN(c3ncccn3)CC2)c([N+](=O)[O-])c1` is -17.6%.
Regarding `CC(=O)c1ccc(OCC(=O)NC(=O)NC2CCCCC2)cc1`, the cell number change is -34.3%. The AC50 under setting [2] is 29.1 µM [falling, single point]. Under setting [1], the AC50 was 29.1 µM [falling, single point].
Consider `C=CCNc1nc(Cl)nc(Nc2ccc(OC)cc2)n1`, for which the cell number change worked out at 17.2%.
With `Cc1ccc(NC(=O)CN2C(=S)NC(C)(C)CC2C)cc1Cl` (stereo not drawn), the AC50 is 6.51 µM [rising, single point] under setting [2] and 2.06 µM [rising, partial curve] under setting [1].
For the compound `CC1(C)NC(=O)N(CCOc2ccc([N+](=O)[O-])cc2)C1=O`, the cell number change was 11.6%. Besides, the AC50 under setting [1] was 8.91 µM [rising, partial curve, poor fit].
On to `N#CC(C#N)=Cc1cc2ccccc2nc1N1CCCCC1`, for which the cell number change was -17.9%.
As to `COc1ccccc1Nc1cc(C)nc2c(C)ccc([N+](=O)[O-])c12`, the cell number change is -62.5%. Further, the AC50 under setting [2] was 25.9 µM [falling, single point]. Besides, the AC50 under setting [1] was 23.1 µM [falling, single point].
As to `O=C1COc2ccc(S(=O)(=O)NCCc3ccc(Cl)cc3)cc2N1`, the cell number change stood at 11.8%. In addition, under setting [1], the AC50 is 4.47 µM [rising, partial curve, poor fit].
As to `Cc1ccccc1CCN1CCCC(CN(C)CC(C)(C)C)C1` (stereo not drawn), the cell number change stood at 15%. Further, the AC50 under setting [1] is 0.0731 µM [rising, full curve, poor fit].
As for `CCNS(=O)(=O)c1ccc(CCC(=O)Nc2ccc3c(c2)OCO3)cc1`, the cell number change is -28%. In addition, under setting [1], the AC50 was 0.58 µM [falling, single point].
As to `O=C(Nc1ccc(-n2cnnn2)cc1)c1cccc(S(=O)(=O)N2CCCC2)c1`, the cell number change is -14.9%. Moreover, under setting [1], the AC50 is 16.4 µM [rising, single point].
Consider `Cc1ccccc1NC(=O)c1sc(Cl)nc1-c1ccccc1`, for which the cell number change worked out at 6.64%. Further, the AC50 under setting [2] was 2.59 µM [rising, partial curve].
In the case of `O=C(NC(=S)NNC(=O)c1ccccc1O)c1ccccc1`, the cell number change came out at 10.6%. Moreover, under setting [1], the AC50 was 29.1 µM [falling, single point].
Turning to `COc1ccc(C2NC(=O)NC(C)=C2C(=O)OCc2ccccc2)cc1` (stereo not drawn), the cell number change is -22.3%.
In the case of `O=C1N(c2ccccc2)CCN1c1ccccc1`, the cell number change is 10.9%. The AC50 under setting [1] is 2.31 µM [rising, partial curve, poor fit].
Turning to `CCCC(=O)N(c1ccc2oc(=O)sc2c1)S(=O)(=O)c1ccccc1`, the cell number change stood at 6.43%. The AC50 under setting [2] was 0.13 µM [falling, full curve, poor fit]. Moreover, the half-maximal activity concentration (AC50) under setting [1] was 0.461 µM [falling, partial curve, poor fit].
In the case of `O=C(/C=C/c1ccccc1)NCCSCc1ccc(Cl)cc1`, the cell number change was -1.22%. In addition, the AC50 under setting [2] is 6.51 µM [rising, single point]. Moreover, the AC50 under setting [1] was 4.11 µM [falling, partial curve, poor fit].
